Measured data: PubChem BioAssay AID1259405 (NCATS, 2018)

- Test: 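Silenced genes that increase secreted GFP made by CHO cells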 (primary screen)
- Cell system: Chinese hamster CHO-K1 ovary cells with stable secreted eGFP expression
- Reagent: single siRNA against mouse genes, 0.8 pmol siRNA per well (2 µl of 400 nM stock)
- Duration: 3 days
- Measurement: 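Percent of the per-plate non-targeting control median for intracellular GFP per well by laser scanning cytometry and for cell viability by ATP luminescence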
- Reading the numbers: GFP, % of control: higher = more GFP per well, higher productivity; viability (ATP), % of control: higher = more viable cells (more ATP)
- Call rule: 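Called active when intracellular GFP, relative to negative control, is at or above 120%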
The whole screen tested about 50,000 reagents; shown is a part drawn at random. Over the whole deposit, about 4,000 (8%) are marked active. 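Mouse siRNA library applied to hamster cells; one well for each siRNA.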

Or2b7 (olfactory receptor family 2 subfamily B member 7) [SID363554439] showed GFP, % of control 49.9; viability (ATP), % of control 68.8; inactive.
Or2b7 (olfactory receptor family 2 subfamily B member 7) [SID363567886] gave GFP, % of control 83.6; viability (ATP), % of control 83.2; inactive.
Or2b7 (olfactory receptor family 2 subfamily B member 7) [SID363585243] gave GFP, % of control 38.5; viability (ATP), % of control 68.7; inactive.
Silencing of Trpm5 [SID363574771] came out at: GFP, % of control 110; viability (ATP), % of control 85.6; inactive.
Against Trpm5 [SID363575827], the values are GFP, % of control 71.3; viability (ATP), % of control 64.8; inactive.
Depletion of Trpm5 [SID363580403] came out at: GFP, % of control 48.7; viability (ATP), % of control 97.7; inactive.
Irx4 (Iroquois homeobox 4) [SID363573789] scored GFP, % of control 74.2; viability (ATP), % of control 90.3; inactive.
With knock-down of Irx4 (Iroquois homeobox 4) [SID363581533], the screen gave GFP, % of control 54.5; viability (ATP), % of control 58.6; inactive.
Irx4 (Iroquois homeobox 4) [SID363583997] gave GFP, % of control 94.7; viability (ATP), % of control 106; inactive.
After knock-down of Rnf170 (ring finger protein 170) [SID363555054], the record shows GFP, % of control 79.3; viability (ATP), % of control 84.9; inactive.
Silencing of Rnf170 (ring finger protein 170) [SID363568501] gave: GFP, % of control 67.5; viability (ATP), % of control 73.9; inactive.
With knock-down of Rnf170 (ring finger protein 170) [SID363586560], the record shows GFP, % of control 58.9; viability (ATP), % of control 71.8; inactive.
Silencing of Aimp2 [SID363540520] gave: GFP, % of control 57.5; viability (ATP), % of control 76.2; inactive.
Aimp2 [SID363542272] gave GFP, % of control 71.6; viability (ATP), % of control 75; inactive.
Aimp2 [SID363567188] gave GFP, % of control 78.6; viability (ATP), % of control 83.7; inactive.
Against Crb1 [SID363544126], the entry reads GFP, % of control 55; viability (ATP), % of control 70.6; inactive.
Crb1 [SID363550454] scored GFP, % of control 62.4; viability (ATP), % of control 79.8; inactive.
Against Crb1 [SID363557003], the values are GFP, % of control 75.3; viability (ATP), % of control 82.6; inactive.
Knock-down of Limch1 (LIM and calponin homology domains 1) [SID363541185] came out at: GFP, % of control 39.4; viability (ATP), % of control 51; inactive.
Limch1 (LIM and calponin homology domains 1) [SID363555812] showed GFP, % of control 70.8; viability (ATP), % of control 84.9; inactive.
After knock-down of Limch1 (LIM and calponin homology domains 1) [SID363566101], the record shows GFP, % of control 67.2; viability (ATP), % of control 78.3; inactive.
For Gtf2ird1 (general transcription factor II I repeat domain-containing 1) [SID363573339] the deposit lists GFP, % of control 57.5; viability (ATP), % of control 77.6; inactive.
For Gtf2ird1 (general transcription factor II I repeat domain-containing 1) [SID363588578] the deposit lists GFP, % of control 89; viability (ATP), % of control 83.8; inactive.
Knock-down of Tex18 (testis expressed gene 18) [SID363556481] gave: GFP, % of control 39.4; viability (ATP), % of control 39.5; inactive.
Tex18 (testis expressed gene 18) [SID363586931] gave GFP, % of control 145; viability (ATP), % of control 140; active.
After knock-down of Tex18 (testis expressed gene 18) [SID363589039], the record shows GFP, % of control 129; viability (ATP), % of control 138; active.
Cdc42 (cell division cycle 42) [SID363570223] gave GFP, % of control 91.1; viability (ATP), % of control 96.5; inactive.
Depletion of Cdc42 (cell division cycle 42) [SID363576559] resulted in: GFP, % of control 4.8; viability (ATP), % of control 5.19; inactive.
Against Cdc42 (cell division cycle 42) [SID363579727] the deposit lists GFP, % of control 19.4; viability (ATP), % of control 18.7; inactive.
For Rnf26 (ring finger protein 26) [SID363572628], the values are GFP, % of control 63.7; viability (ATP), % of control 64; inactive.
With knock-down of Rnf26 (ring finger protein 26) [SID363577908] the results were GFP, % of control 79.3; viability (ATP), % of control 77.4; inactive.
Rnf26 (ring finger protein 26) [SID363582132] scored GFP, % of control 94.2; viability (ATP), % of control 119; inactive.
With knock-down of Rfesd (Rieske (Fe-S) domain containing) [SID363542777] the results were GFP, % of control 134; viability (ATP), % of control 95; active.
Silencing of Rfesd (Rieske (Fe-S) domain containing) [SID363546294] gave: GFP, % of control 97.6; viability (ATP), % of control 83.3; inactive.
For Rfesd (Rieske (Fe-S) domain containing) [SID363548050] the deposit lists GFP, % of control 70.7; viability (ATP), % of control 71.2; inactive.
Depletion of Slc35d2 [SID363574616] came out at: GFP, % of control 67.7; viability (ATP), % of control 79.3; inactive.
Slc35d2 [SID363575672] showed GFP, % of control 98.1; viability (ATP), % of control 72.3; inactive.
For Slc35d2 [SID363580248] the deposit lists GFP, % of control 58.4; viability (ATP), % of control 67.3; inactive.
After knock-down of Fabp3 (fatty acid binding protein 3, muscle and heart) [SID363570075] the results were GFP, % of control 97.8; viability (ATP), % of control 89.5; inactive.
Depletion of Fabp3 (fatty acid binding protein 3, muscle and heart) [SID363576411] came out at: GFP, % of control 112; viability (ATP), % of control 92.1; inactive.
Against Fabp3 (fatty acid binding protein 3, muscle and heart) [SID363579579], the entry reads GFP, % of control 71.6; viability (ATP), % of control 61.6; inactive.
Against Mettl1 (methyltransferase 1, tRNA methylguanosine) [SID363570359], the values are GFP, % of control 85.8; viability (ATP), % of control 93.8; inactive.
Against Mettl1 (methyltransferase 1, tRNA methylguanosine) [SID363579159] the deposit lists GFP, % of control 64.1; viability (ATP), % of control 60.9; inactive.
With knock-down of Mettl1 (methyltransferase 1, tRNA methylguanosine) [SID363583031], the screen gave GFP, % of control 107; viability (ATP), % of control 95.7; inactive.
Depletion of Hmgn3 (high mobility group nucleosomal binding domain 3) [SID363569483] resulted in: GFP, % of control 46.8; viability (ATP), % of control 40.1; inactive.
With knock-down of Hmgn3 (high mobility group nucleosomal binding domain 3) [SID363577227] the results were GFP, % of control 89.6; viability (ATP), % of control 71.8; inactive.
Hmgn3 (high mobility group nucleosomal binding domain 3) [SID363578635] showed GFP, % of control 102; viability (ATP), % of control 80.1; inactive.
Against Ostc (oligosaccharyltransferase complex subunit (non-catalytic)) [SID363543344], the entry reads GFP, % of control 90.8; viability (ATP), % of control 45.7; inactive.
With knock-down of Ostc (oligosaccharyltransferase complex subunit (non-catalytic)) [SID363552837] the results were GFP, % of control 80.4; viability (ATP), % of control 48.1; inactive.
With knock-down of Ostc (oligosaccharyltransferase complex subunit (non-catalytic)) [SID363558685], the record shows GFP, % of control 71.9; viability (ATP), % of control 68.5; inactive.
For Ear1 (eosinophil-associated, ribonuclease A family, member 1) [SID363545681] the deposit lists GFP, % of control 102; viability (ATP), % of control 96.5; inactive.
Ear1 (eosinophil-associated, ribonuclease A family, member 1) [SID363549194] scored GFP, % of control 58.1; viability (ATP), % of control 56.8; inactive.
Depletion of Ear1 (eosinophil-associated, ribonuclease A family, member 1) [SID363563000] came out at: GFP, % of control 46.6; viability (ATP), % of control 58.5; inactive.

Already shown: 4 of the entries above.
Mettl1 (methyltransferase 1, tRNA methylguanosine) [SID363583031]: GFP, % of control = 107; viability (ATP), % of control = 95.7; Outcome = inactive
Hmgn3 (high mobility group nucleosomal binding domain 3) [SID363569483]: GFP, % of control = 46.8; viability (ATP), % of control = 40.1; Outcome = inactive
Hmgn3 (high mobility group nucleosomal binding domain 3) [SID363577227]: GFP, % of control = 89.6; viability (ATP), % of control = 71.8; Outcome = inactive
Hmgn3 (high mobility group nucleosomal binding domain 3) [SID363578635]: GFP, % of control = 102; viability (ATP), % of control = 80.1; Outcome = inactive
